In the supplement of paper PMC10689618:
Counter-ions that a name gives are not always drawn. The list shows a part of the results. Many values rest on one well or one pass, so single values are uncertain.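 Primary human fetal astrocytes engulfed labelled rat cortical synaptosomes, measured as a red/green ratio corrected for calcein live-cell signal and scaled to the plate median. Toxicity meant calcein falling over 30%; decreased phagocytosis meant below 70% of median above 5 µM.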

Key:
Human fetal astrocytes [1] = assay: loss of total cells relative to no-compound high-control median (toxicity); higher = more toxic (fewer cells); details: 24 h
Human fetal astrocytes [2] = assay: synaptosome phagocytosis (pHrodo/calcein intensity ratio) relative to plate median of data wells; higher = more phagocytosis; details: 24 h

| Compound | loss of total cells (Human fetal astrocytes [1]; 1.39 µM) | loss of total cells (Human fetal astrocytes [1]; 2.78 µM) | loss of total cells (Human fetal astrocytes [1]; 5.56 µM) | loss of total cells (Human fetal astrocytes [1]; 11.11 µM) | loss of total cells (Human fetal astrocytes [1]; 22.22 µM) | synaptosome phagocytosis (Human fetal astrocytes [2]; 1.39 µM) | synaptosome phagocytosis (Human fetal astrocytes [2]; 2.78 µM) | synaptosome phagocytosis (Human fetal astrocytes [2]; 5.56 µM) | synaptosome phagocytosis (Human fetal astrocytes [2]; 11.11 µM) | synaptosome phagocytosis (Human fetal astrocytes [2]; 22.22 µM) |
| --- | --- | --- | --- | --- | --- | --- | --- | --- | --- | --- |
| Nc1ccc(C(=O)O)cc1 | -4.1% | 2.1% | 6.9% | 0.8% | -13.6% | 89.4% | 104% | 84.9% | 83.6% | 83.5% |
| C=C1CC[C@H](O)C/C1=C/C=C1\CCC[C@]2(C)[C@@H]([C@H](C)/C=C/[C@H](C)C(C)C)CC[C@@H]12 | -10.4% | -22% | -12.5% | 7.8% | -11.9% | 92.8% | 110% | 117% | 95.8% | 59.1% |
| O=C(OCC(O)CO)c1ccccc1Nc1ccnc2cc(Cl)ccc12 (stereo not given) | 25.6% | 14.1% | 15.2% | 9.6% | 18.9% | 105% | 105% | 82.6% | 71.8% | 128% |
| CO/N=C1\CN(c2nc3c(cc2F)c(=O)c(C(=O)O)cn3C2CC2)CC1CN (stereo not given) | -15.8% | -17.4% | -17.7% | -38.3% | 15.9% | 97.3% | 106% | 89.5% | 113% | 108% |
| CC(=O)NCCCCCC(=O)O | 27.8% | 13.4% | 9.4% | -1.3% | 9.8% | 132% | 105% | 106% | 71.5% | 103% |
| COc1ccccc1OCC(O)CO (stereo not given) | -20.5% | -18.6% | -36.2% | -10.7% | 38% | 103% | 128% | 111% | 124% | 126% |
| OC[C@H]1O[C@@](CO)(O[C@H]2O[C@H](CO)[C@@H](O)[C@H](O)[C@H]2O)[C@@H](O[C@H]2O[C@H](CO)[C@@H](O)[C@H](O)[C@H]2O)[C@@H]1O | -2.5% | -6.1% | 2.9% | 4.7% | 9.6% | 121% | 112% | 121% | 130% | 121% |
| Nc1[nH]cnc2ncnc1-2 | 1.5% | -17.3% | -0.7% | -0.3% | -26.4% | 109% | 125% | 90.9% | 108% | 101% |
| CC(=O)OCC(=O)[C@@]1(O)CC[C@H]2[C@@H]3CCC4=CC(=O)C=C[C@]4(C)[C@@]3(Cl)[C@@H](Cl)C[C@@]21C | 17% | 15.5% | 14.5% | -0.4% | 0.8% | 136% | 126% | 148% | 124% | 74.5% |
| COc1cc(/C=C/C(=O)CC(=O)/C=C/c2ccc(O)c(OC)c2)ccc1O | -27% | -10.5% | -5.1% | 7.4% | -5.2% | 101% | 102% | 109% | 54% | 28.8% |
| CC(C)=CCC/C(C)=C/CC/C(C)=C/CC/C(C)=C/CC/C(C)=C/CC/C(C)=C/CC/C(C)=C/CC/C(C)=C/CC/C(C)=C/CO | -4.1% | 2.5% | -7.3% | 28.4% | 18.5% | 146% | 127% | 147% | 118% | 156% |
| Cc1c(Cl)cccc1Nc1ccccc1C(=O)O | 22.7% | 17% | 17.4% | 18% | 10.6% | 144% | 114% | 118% | 128% | 123% |
| CC[C@H](C)C(=O)O[C@H]1C[C@@H](C)C=C2C=C[C@H](C)[C@H](CC[C@@H]3C[C@@H](O)CC(=O)O3)[C@H]21 | -19.9% | -10.7% | 9.9% | -21.1% | 0.6% | 110% | 82.1% | 100% | 108% | 85.1% |
| C[C@@H]1C[C@H]2[C@@H]3C[C@H](F)C4=CC(=O)C=C[C@]4(C)[C@@]3(F)[C@@H](O)C[C@]2(C)[C@@]1(O)C(=O)CO | -10.8% | -19.2% | 0.9% | -8.6% | -8.5% | 138% | 106% | 94.7% | 123% | 115% |
| N[C@@H](C(=O)O)[C@@H](O)[C@H](O)[C@H](O)CO | -9% | 4.7% | -16.8% | -0.7% | 13.3% | 145% | 101% | 99.5% | 119% | 121% |
| NC(CO)C(=O)NNCc1ccc(O)c(O)c1O (stereo not given) [Benserazide hydrochloride] | -12.4% | -2.1% | 12.3% | -3.1% | 7.9% | 116% | 101% | 106% | 124% | 118% |
| COc1cc(C)c(C(=O)Oc2cc(C)c(C(=O)O)c(O)c2C)c(OC)c1C | -9% | -13.4% | -3.7% | 0% | 19.3% | 132% | 124% | 105% | 94.5% | 130% |
| CC(C)Cn1c(=O)n(C)c(=O)c2[nH]cnc21 | -19.7% | -7.6% | 14.7% | 14.9% | -3% | 122% | 85.1% | 112% | 94.3% | 102% |
| O=C1N=C(O)NC1(c1ccccc1)c1ccccc1 | -25.7% | -1.5% | -21.3% | 13.3% | -2.8% | 101% | 117% | 107% | 89.5% | 116% |

Whole records, looked up by structure. Values in the order: loss of total cells (Human fetal astrocytes [1]; 1.39 µM) | loss of total cells (Human fetal astrocytes [1]; 2.78 µM) | loss of total cells (Human fetal astrocytes [1]; 5.56 µM) | loss of total cells (Human fetal astrocytes [1]; 11.11 µM) | loss of total cells (Human fetal astrocytes [1]; 22.22 µM) | synaptosome phagocytosis (Human fetal astrocytes [2]; 1.39 µM) | synaptosome phagocytosis (Human fetal astrocytes [2]; 2.78 µM) | synaptosome phagocytosis (Human fetal astrocytes [2]; 5.56 µM) | synaptosome phagocytosis (Human fetal astrocytes [2]; 11.11 µM) | synaptosome phagocytosis (Human fetal astrocytes [2]; 22.22 µM)
C=C1CC[C@H](O)C/C1=C/C=C1\CCC[C@]2(C)[C@@H]([C@H](C)/C=C/[C@H](C)C(C)C)CC[C@@H]12 in the list: -10.4% | -22% | -12.5% | 7.8% | -11.9% | 92.8% | 110% | 117% | 95.8% | 59.1%
N[C@@H](C(=O)O)[C@@H](O)[C@H](O)[C@H](O)CO in the list: -9% | 4.7% | -16.8% | -0.7% | 13.3% | 145% | 101% | 99.5% | 119% | 121%
